Experimental data from publication PMC5662874.
These are yes or no findings as the source states them, for the method shown. For some assays here: In cells and extracts the contact can be indirect. Tags and fused reporters may be left off the sequences shown. Some entries that bind do so weakly or less than the wild type.

The chains behind the UniProt entries cited, without tags or fusion partners.
UniProt Q9I9N6: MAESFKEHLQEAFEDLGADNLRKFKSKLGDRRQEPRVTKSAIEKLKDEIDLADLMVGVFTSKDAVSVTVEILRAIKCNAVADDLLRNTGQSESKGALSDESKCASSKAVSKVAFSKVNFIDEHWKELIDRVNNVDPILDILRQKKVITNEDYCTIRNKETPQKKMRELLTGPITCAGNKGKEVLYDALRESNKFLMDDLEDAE

What was measured:
[1] = target: zebrafish Asc-Myc (zebrafish) (UniProt Q9I9N6); assay: co-IP; HEK293T cells co-transfected, lysed 48 h post-transfection in 50 mM Tris-HCl, 150 mM NaCl, 1% NP40; 1 mg lysate with Myc Affinity Gel 2 h at 4°C; blots probed for Myc and mCherry
[2] = target: zebrafish Caiap-mCherry (CARD- and ANK-containing Inflammasome Adaptor Protein fused to mCherry) (zebrafish) (UniProt Q5TYM7); assay: gel electrophoresis under non-reducing conditions with blot; lysates of transfected HEK293T cells, with or without FLAG-Caspa, resolved under non-reducing conditions (SDS and β-mercaptoethanol omitted from the loading buffer) and reducing conditions

binding [1]: no binding | binding [2]: binds
B1: zebrafish Caiap-mCherry (CARD- and ANK-containing Inflammasome Adaptor Protein fused to mCherry) (protein, UniProt Q5TYM7 1-744)
chain: MGSTSFTNPYAIEVIQMKRSELVSGILNPEDLLDLLIANGVLQPDIRVLVSDLTVREEKNSRMLNILISRGERACRIFFYPCLKRAEPDLYQHMRTYVGGVNEGIRDARRQLIGYLLEKDKQGLVKNSKPERIHPKSTANEPNNEPLNKQILKSESNHHDAILEAISSGDLYLLQELTKELDVNSVLSSNDTLLHHAAEYGKEAIVYFLLRQGAKLDLKDKEGRTALHRAAQRGHTAVAVALAKAGADIHATDQTSKTPLHLAAQNGHEGCVKALVHEEKKSLKNQTTVLHMAAIEDNATLAEVLLRNGALVDAQDGQRKTALHHAVRHGNEKTAAVLLKAGAQVDSRIVDAAFQLNRKSLLSLFLQHVHESMSQTEINAALFKAVQRNLDAVVAALIEHGADVNSCNELGYTPVLLAAELGNGEAFKVLVSKKAKLDERLPNQMSSLHLAVQSGSIQIAQILLHKGIDPNISGPKDQTPLHLSASHNQPAMMALLLRVGAQLNPVTQDGFTPLHLASQNGHTEAVAQLLEAKADVHAKDKQGRTALHWAAEQGEVAIIQSLLAAGAYSNASEREKKTPLHLAAAEGHTKAVSALLAGKAKVGAKDMDGCSPLHYAARNGKERAGSVLLASSKSKNVDDKNVWRRTALHLAAEHGHEALVGILLENKAKINALDNNKDTPLHCACKTGHLGTVQRLINWTNGERANLQATNNVKKNALQVAEAGDTEAHENISTLLKKKMFLVK
